Test results from publication PMC4624725.
Positions count from the first letter of the chain named. Names and notes keep the numbering of the source. No constants are given. Whether binding was seen depends on the method and setting. In cells and extracts the contact can be indirect. A result given as binding can be weak or reduced; the word gives no strength. Blank lines part the entries; values can stand above or below the binder they belong to.

By UniProt entry, the sequences of proteins in these tests, tags left out. Where a name states a change or a piece, a line headed by the entry shows the natural chain unless it says otherwise.
UniProt P0C1G9: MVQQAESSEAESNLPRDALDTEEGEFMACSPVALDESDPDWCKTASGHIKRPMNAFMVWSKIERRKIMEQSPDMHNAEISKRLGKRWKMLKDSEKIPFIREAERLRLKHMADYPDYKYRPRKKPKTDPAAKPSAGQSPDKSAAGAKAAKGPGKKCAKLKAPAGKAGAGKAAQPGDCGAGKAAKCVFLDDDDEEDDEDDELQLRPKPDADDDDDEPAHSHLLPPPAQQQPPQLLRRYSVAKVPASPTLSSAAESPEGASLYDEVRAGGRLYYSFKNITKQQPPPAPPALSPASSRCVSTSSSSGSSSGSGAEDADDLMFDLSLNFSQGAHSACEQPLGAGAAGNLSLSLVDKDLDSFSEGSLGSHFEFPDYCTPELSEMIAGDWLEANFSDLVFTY

Key:
Test in all cases: co-IP; HEK 293FT lysates (NP-40 buffer); flag-sox11 deletion mutants immunoprecipitated with anti-flag on Dynabeads, caspase-6 detected with anti-caspase-6
Flag-Sox11 ΔC33 (rat) = Flag-Sox11 ΔC33 (rat) (UniProt P0C1G9)
Flag-Sox11 ΔHMG (rat) = Flag-Sox11 ΔHMG (rat) (UniProt P0C1G9)
[1] = target: Flag-Sox11 ΔC33Δ117–214 (rat) (UniProt P0C1G9)

binding (Flag-Sox11 ΔC33 (rat)): binds
binding (Flag-Sox11 ΔHMG (rat)): binds
binding [1]: binds
B1: caspase-6 C163A (full length, in HEK 293FT cells) (enzyme, UniProt P55212 1-293)
chain: MSSASGLRRGHPAGGEENMTETDAFYKREMFDPAEKYKMDHRRRGIALIFNHERFFWHLTLPERRGTCADRDNLTRRFSDLGFEVKCFNDLKAEELLLKIHEVSTVSHADADCFVCVFLSHGEGNHIYAYDAKIEIQTLTGLFKGDKCHSLVGKPKIFIIQAARGNQHDVPVIPLDVVDNQTEKLDTNITEVDAASVYTLPAGADFLMCYSVAEGYYSHRETVNGSWYIQDLCEMLGKYGSSLEFTELLTLVNRKVSQRRVDFCKDPSAIGKKQVPCFASMLTKKLHFFPKSN

binding (Flag-Sox11 ΔC33 (rat)): binds
binding (Flag-Sox11 ΔHMG (rat)): binds
binding [1]: binds
B2: procaspase-6 (wild type, full length caspase-6) (enzyme, UniProt P55212 1-293)
chain: B1 chain with A163C
